In PMC7198492:
No constants are given. Whether binding was seen depends on the method and setting. In cells and extracts the contact can be indirect. Some results given as binding are weak or reduced against the parent protein; the word gives no strength.

Chains of the proteins cited; added tags and fusions are not shown.
UniProt Q14790: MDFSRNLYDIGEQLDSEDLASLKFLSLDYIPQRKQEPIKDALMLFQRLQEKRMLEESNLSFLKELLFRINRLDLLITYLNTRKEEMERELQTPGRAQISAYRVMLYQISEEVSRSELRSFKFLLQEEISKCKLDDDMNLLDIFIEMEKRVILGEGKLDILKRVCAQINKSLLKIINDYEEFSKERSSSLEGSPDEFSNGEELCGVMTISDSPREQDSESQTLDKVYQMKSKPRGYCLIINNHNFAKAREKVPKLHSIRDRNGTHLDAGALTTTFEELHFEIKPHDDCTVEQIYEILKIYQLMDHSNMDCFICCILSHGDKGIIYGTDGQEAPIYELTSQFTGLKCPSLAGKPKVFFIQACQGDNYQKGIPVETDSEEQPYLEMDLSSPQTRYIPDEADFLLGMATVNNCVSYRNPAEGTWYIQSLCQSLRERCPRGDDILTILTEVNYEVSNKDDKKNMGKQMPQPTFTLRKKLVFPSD
UniProt Q9QZL0: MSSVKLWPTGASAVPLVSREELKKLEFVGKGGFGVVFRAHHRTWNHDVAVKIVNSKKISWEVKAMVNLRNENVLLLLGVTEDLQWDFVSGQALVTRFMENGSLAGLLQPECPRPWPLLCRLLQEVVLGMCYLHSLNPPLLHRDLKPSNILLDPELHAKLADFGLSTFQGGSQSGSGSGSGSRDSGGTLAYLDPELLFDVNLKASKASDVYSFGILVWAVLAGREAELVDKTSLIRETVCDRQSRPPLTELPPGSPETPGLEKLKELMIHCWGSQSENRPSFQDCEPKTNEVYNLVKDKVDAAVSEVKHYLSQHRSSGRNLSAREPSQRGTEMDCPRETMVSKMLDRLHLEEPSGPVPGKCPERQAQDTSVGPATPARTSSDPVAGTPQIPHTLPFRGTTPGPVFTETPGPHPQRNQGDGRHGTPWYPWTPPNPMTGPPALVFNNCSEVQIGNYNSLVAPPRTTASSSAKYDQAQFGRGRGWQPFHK
UniProt Q9Y572: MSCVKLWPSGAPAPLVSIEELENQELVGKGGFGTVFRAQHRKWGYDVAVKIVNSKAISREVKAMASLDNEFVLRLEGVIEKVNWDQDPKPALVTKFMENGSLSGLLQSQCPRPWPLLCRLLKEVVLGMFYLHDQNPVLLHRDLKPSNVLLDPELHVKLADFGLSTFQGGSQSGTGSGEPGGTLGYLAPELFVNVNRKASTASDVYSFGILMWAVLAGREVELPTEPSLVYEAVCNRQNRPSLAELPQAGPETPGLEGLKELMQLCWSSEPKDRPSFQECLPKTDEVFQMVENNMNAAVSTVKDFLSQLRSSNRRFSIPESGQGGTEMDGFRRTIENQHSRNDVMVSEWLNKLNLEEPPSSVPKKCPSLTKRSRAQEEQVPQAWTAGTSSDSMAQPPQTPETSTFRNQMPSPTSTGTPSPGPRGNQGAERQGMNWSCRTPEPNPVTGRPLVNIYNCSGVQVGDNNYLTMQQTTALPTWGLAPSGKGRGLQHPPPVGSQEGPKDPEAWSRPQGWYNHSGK

Assays:
[1] = molecular target: T1, caspase-8 (mouse, endogenous in BMDMs) (mouse (endogenous in BMDMs)) (UniProt O89110); assay: co-IP; whole-cell lysates of WT and Dapk1-/- mouse BMDMs treated with zVAD+AT-406; immunoprecipitated with anti-FADD or anti-caspase-8, Protein G Mag Sepharose, WCE buffer (25 mM HEPES pH 7.9, 300 mM NaCl, 0.1% Triton X-100), overnight at 4 °C; Western blot
T1 sequence: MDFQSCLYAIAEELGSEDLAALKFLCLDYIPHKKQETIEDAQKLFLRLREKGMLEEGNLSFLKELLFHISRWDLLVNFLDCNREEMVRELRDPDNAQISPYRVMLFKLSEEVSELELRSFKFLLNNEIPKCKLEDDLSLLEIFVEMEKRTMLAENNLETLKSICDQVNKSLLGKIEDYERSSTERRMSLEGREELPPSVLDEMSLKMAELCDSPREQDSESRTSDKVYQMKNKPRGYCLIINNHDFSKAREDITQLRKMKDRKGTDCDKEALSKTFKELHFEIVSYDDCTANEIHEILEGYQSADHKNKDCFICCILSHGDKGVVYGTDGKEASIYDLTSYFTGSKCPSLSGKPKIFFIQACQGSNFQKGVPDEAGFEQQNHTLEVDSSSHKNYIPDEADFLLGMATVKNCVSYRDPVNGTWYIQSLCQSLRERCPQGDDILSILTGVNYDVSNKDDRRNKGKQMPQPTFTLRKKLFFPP

[2] = molecular target: caspase-8 (human, endogenous in HT-29) (human (endogenous in HT-29)) (UniProt Q14790); assay: co-IP; whole-cell lysates of control and DAPK1-knockdown HT-29 cells treated with zVAD+BV6+TNF (anti-FADD IP) or zVAD+BV6 (anti-caspase-8 IP); Protein G Mag Sepharose, WCE buffer, overnight at 4 °C; Western blot

| Substance | binding [1] | binding [2] |
| --- | --- | --- |
| RIPK3 (mouse, endogenous in BMDMs) (from UniProt Q9QZL0 1-486) | binds |  |
| RIPK3 (human, endogenous in HT-29) (from UniProt Q9Y572 1-518) |  | binds |
